# According to US12029748B2, “Synergistic composition for maintenance of healthy balance of microflora” (KIMBERLY-CLARK WORLDWIDE, INC., priority 2017, dated 2024):
# Where a SMILES comes first, the peptide text is derived from it.
# System: L. crispatus and E. coli
# Experiment: Therapeutic Effect Protocol: L. crispatus / E. coli co-culture, ratio after 36 hours
# Type: cell-based, Lactobacillus crispatus; E. coli
# Conditions: pH of test solution 36 hours after inoculation; for F pH (final pH), 0.10%: nitrogen compound 0.10 wt/vol % with 1.0 wt/vol % α methyl-D glucoside; for F pH (final pH), 0.50%: nitrogen compound 0.50 wt/vol % with 1.0 wt/vol % α methyl-D glucoside; for F pH (final pH), 1.00%: nitrogen compound 1.00 wt/vol % with 1.0 wt/vol % α methyl-D glucoside
# Procedure: As used herein the term “therapeutic effect” refers to the ability of the compositions and formulations of the present invention to stimulate the growth of Lactobacillus relative E. coli measured according to the Therapeutic Effect Protocol described below. Generally, therapeutic effect is expressed as a ratio of Lactobacillus to E. coli and is desirably greater than about 2, more preferably greater than about 20 and more desirably greater than about 100.
# The data in Table 1 was tested according to the Therapeutic Effect Protocol as described further herein. The nitrogen compounds were tested for their therapeutic efficacy at three different concentrations when combined with α methyl-D glucoside (1% wt/vol %). The concentrations of the nitrogen containing compounds that were tested were 1% wt/vol %, 0.5% wt/vol %, and 0.1% wt/vol %.
# Colonies of L. crispatus and E. coli were prepared as follows. A colony of L. crispatus was transferred to 7 ml de Man, Rogosa & Sharpe (MRS) broth and incubated anaerobically (using BD GasPak EZ anaerobe container system with indicator) at 37° C. without shaking for 18-20 hours. A colony of E. coli was transferred to 5 ml Tryptic Soy Broth (TSB) and incubated aerobically (shaking at 100 rpm) at 37° C. for 18-20 hours.
# Colonies were then inoculated as follows. Bacterial cultures were gently vortexed and 1 mL of each culture was transferred to a corresponding 2.0 mL micro-centrifuge tube and then centrifuged for two minutes at 14,500 rpm. The cultural supernatant was removed and the cell pellet was re-suspended in 1 mL of 0.95% (wt/vol %) saline. […] For L. crispatus, the pellet was re-suspended in 1 mL of 0.95% saline to achieve ˜10^7-10^8 cfu/mL. For E. coli, the pellet was re-suspended in 1 mL of 0.95% saline to achieve ˜10^8-10^9 cfu/mL.
# Media were prepared as follows.
# All of the ingredients in Table 2 were combined and the pH was adjusted to 6.5. […] To evaluate the effect of various nitrogen containing therapeutic agents on the growth of bacteria, the LAPT-g media, prepared as described above, was supplemented with various nitrogen containing compound therapeutic agents to a final test concentration between 0.1 and 1.0%. As initial screening measures, solubility and initial pH of each composition were checked. If a specific composition was insoluble (as detected by visual indication of precipitates or turbidity), then no further therapeutic efficacy testing was undertaken on that composition. Additionally, if the initial pH of the composition was below 5.5 (“Low”) or was above 6.5 (“High”), then no further therapeutic efficacy testing was undertaken on that composition.
# Five milliliters (5 mL) of each medium was transferred to a test tube in duplicates for subsequent inoculation. A master mixture of L. crispatus and E. coli, prepared as described above, was prepared in 1,000:1 ratio. Each (5 ml) test tube was inoculated with the master mixture to give 10^5-10^6 total CFU L. crispatus and 100-1,000 total CFU E. coli per tube.
# To establish a negative control, one tube was vortexed and 100 μL was removed to determine the initial cell concentrations by serial dilutions and plating (2 plates per dilution). L. crispatus is selected on MRS agar plates incubated anaerobically at 37° C. for two days. E. coli is selected on TSA plates incubated aerobically at 37° C. for one day. The co-cultures were incubated in an anaerobic container with BD GasPaks at 37° C. for 36 hours.
# The effect of the α methyl-D glucoside and the nitrogen containing compound therapeutic agents on the ratio of L. crispatus to E. coli was measured 36 hours after inoculation and a final pH of the test solutions was recorded. The co-culture tube was vortexed and 100 μL was removed to determine the final cell concentrations by serial dilutions and plating (2 plates per dilution). L. crispatus is selected on MRS agar plates incubated anaerobically at 37° C. for two days.
Compound,"F pH (final pH), 0.10%","F pH (final pH), 0.50%","F pH (final pH), 1.00%"
O=C1NC(=O)C(=O)C(=O)N1 [Alloxan],4.5,4,–
N.O.O.O.O.O=P([O-])(O)O.[Na+] [Ammonium Sodium Phosphate],4.5,–,–
N=C(N)NCCC[C@@H](N)C(=O)O [D-Arginine],4.5,–,–
C[C@H](NC(=O)CN)C(=O)O [Glycyl-Alanine] (H-Gly-Ala-OH),4,3.5,4
N=C(N)NCCC[C@H](N)C(=O)O [L-Arginine],5,–,–
NCCCC[C@H](N)C(=O)O [L-Lysine],4.5,4.5,6
N[C@@H](Cc1c[nH]c2ccccc12)C(=O)O [L-Tryptophan],4.5,5,–
CNCCc1ccccc1.Cl [Methyl(2-phenylethyl)amine Hydrochloride],4,5,5.5
